Experimental data: PubChem BioAssay AID1259254 (NCATS, 2017)
Shown is an unselected part of about 59,000 reagents. About 1,550 of them (2.6%) were called active. 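G2 share is only a proxy for re-replication; each gene was hit by three separate siRNAs, and active genes were retested.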 The raw values are shown without normalisation. The numbers tell different reagents against one gene apart. Not given: the amount of reagent.

Screen: 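Gene knock-downs that lead to re-replication, shown by excess G2 DNA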 (primary screen)
Cells: human HCT116 colorectal cancer cells
Knock-down reagent: single siRNA against human genes
Duration: 3 days
Measurement: 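Imaged Hoechst DNA stain sorts each cell into a cycle phase by DNA amount; per plate, G2 fraction set to 0% for non-targeting and 100% for GMNN siRNA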
Direction: G2 robust z-score and G2 cells, % of GMNN control: higher = more G2 cells, more excess DNA replication; raw share of cells in G2: higher = larger share of cells with G2 DNA content
Call rule: 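Active siRNAs have a G2 robust z of 5 or more median absolute deviations over the median, which in these data means about 38% or higher of GMNN control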

no.	target	reagent	G2 robust z-score	G2 cells, % of GMNN control	raw share of cells in G2 (%)	outcome
1	TECRL	1	-0.402	0.137	3.63	inactive
2	TECRL	2	0.895	9.26	6.3	inactive
3	TECRL	3	0.515	6.59	5.3	inactive
4	KCNMB1	1	3.25	25.8	14.7	inactive
5	KCNMB1	2	2.13	18	10.9	inactive
6	KCNMB1	3	0.0658	3.43	5.71	inactive
7	PARD6A	1	-0.344	0.546	4.06	inactive
8	PARD6A	2	-0.549	-0.893	4.21	inactive
9	PARD6A	3	0.438	6.05	5.16	inactive
10	PARP10	1	-0.757	-2.36	3.34	inactive
11	PARP10	2	1.16	11.1	8.9	inactive
12	PARP10	3	-0.0849	2.37	6.42	inactive
13	TUT7	1	1.21	11.5	9.21	inactive
14	TUT7	2	1.83	15.8	11.2	inactive
15	TUT7	3	0.53	6.7	4.21	inactive
16	GLI3	1	1.74	15.2	9.51	inactive
17	GLI3	2	-1.19	-5.37	2.33	inactive
18	GLI3	3	-0.557	-0.951	2.76	inactive
19	NEK3	1	2.57	21.1	12.6	inactive
20	NEK3	2	-0.0407	2.68	6.31	inactive
21	NEK3	3	-1.2	-5.48	2.09	inactive
22	RAB9A	1	0.529	6.69	8.42	inactive
23	RAB9A	2	-0.726	-2.14	3.46	inactive
24	RAB9A	3	0.153	4.04	5.81	inactive
25	PRIM2	1	0.0758	3.5	5.31	inactive
26	PRIM2	2	2.25	18.8	11.5	inactive
27	PRIM2	3	-1.18	-5.32	2.65	inactive
28	H1-10	1	0.0298	3.18	6.54	inactive
29	H1-10	2	0.0851	3.57	5.31	inactive
30	H1-10	3	-0.791	-2.59	2.43	inactive

Already shown: entries from further up.
no.	target	reagent	G2 robust z-score	G2 cells, % of GMNN control	raw share of cells in G2 (%)	outcome
6	KCNMB1	3	0.0658	3.43	5.71	inactive
7	PARD6A	1	-0.344	0.546	4.06	inactive
8	PARD6A	2	-0.549	-0.893	4.21	inactive
9	PARD6A	3	0.438	6.05	5.16	inactive
10	PARP10	1	-0.757	-2.36	3.34	inactive

Continued.
no.	target	reagent	G2 robust z-score	G2 cells, % of GMNN control	raw share of cells in G2 (%)	outcome
31	SMIM22	1	3.26	25.9	13.6	inactive
32	SMIM22	2	0.906	9.34	6.96	inactive
33	SMIM22	3	-0.924	-3.53	1.92	inactive
34	SPATS1	1	1.13	10.9	7.54	inactive
35	SPATS1	2	2.19	18.4	9.42	inactive
36	SPATS1	3	-0.259	1.15	3.56	inactive
37	ILK	1	1.5	13.6	10.1	inactive
38	ILK	2	8.73	64.4	27.1	active
39	ILK	3	1.29	12	8.26	inactive
40	CDK2	1	-1.35	-6.5	3.46	inactive
41	CDK2	2	-1.27	-5.94	3.41	inactive
42	CDK2	3	-1.22	-5.63	2.04	inactive
43	ZNF843	1	-0.396	0.183	3.32	inactive
44	ZNF843	2	-0.119	2.13	4.42	inactive
45	ZNF843	3	-0.422	-0.00277	3.04	inactive
46	OR5C1	1	0.25	4.73	5.53	inactive
47	OR5C1	2	-0.756	-2.35	2.58	inactive
48	OR5C1	3	1.81	15.7	11.3	inactive
49	BRINP2	1	-0.789	-2.59	2.21	inactive
50	BRINP2	2	0.353	5.45	6.5	inactive
51	BRINP2	3	1.02	10.2	9.32	inactive
52	MEGF11	1	-0.416	0.0416	4.12	inactive
53	MEGF11	2	-0.183	1.68	3.96	inactive
54	MEGF11	3	-0.11	2.19	3.07	inactive
55	TTLL8	1	-0.404	0.124	2.8	inactive
56	TTLL8	2	-0.801	-2.67	2.65	inactive
57	TTLL8	3	-0.106	2.22	3.7	inactive
58	DNAJC22	1	-0.122	2.11	5.32	inactive
59	DNAJC22	2	5.32	40.4	22	active
60	DNAJC22	3	1.81	15.7	6.67	inactive
61	TMEM8B	1	-0.79	-2.59	2.34	inactive
62	TMEM8B	2	1.48	13.4	8.39	inactive
63	TMEM8B	3	-0.00647	2.92	5.5	inactive
64	INIP	1	-1.02	-4.24	2.68	inactive
65	INIP	2	2.8	22.7	15.3	inactive
66	INIP	3	-0.307	0.804	3.28	inactive
67	CHD7	1	3.94	30.7	19.9	inactive
68	CHD7	2	-0.8	-2.66	3.49	inactive
69	CHD7	3	-0.793	-2.61	3.24	inactive
